Laboratory results from the supplement of paper PMC7125110.
± gives the standard error. The uncertainty is large for many entries.

B1: glmS ribozyme (parent)
chain: AUAAAAGCGCCAGAACUACAGAAAUGUAGUUGACGAGGAGGAGGUUUAUCGAAUUUUCGGCGGAUGCCUCCAAA

Variants of: B1
Experiment: self-cleavage kobs at 40 uM GlcN6P; higher = faster cleavage; RNA array
Conditions: with glucosamine-6-phosphate
Outline: (§1)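 Barcoded ribozyme variants, transcribed in situ by E. coli RNA polymerase on sequenced MiSeq chips, were followed via a hybridised Cy3 probe at 37 °C. Glucosamine-6-phosphate ranged from 40 μM to 10 mM in HEPES/KCl/Mg(OAc)2 buffer. kobs came from decay fits to per-tile medians, and kcat and KM from weighted Michaelis–Menten fits.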

| Variant | self-cleavage kobs at 40 uM GlcN6P [s⁻¹] |
| --- | --- |
| C8U C70G | 1.95e-05 ± 1.8e-05 |
| G9A C34U A36C C50G | 5.21e-05 ± 2.9e-05 |
| G9C C50G U55A U57G C70U | 5.67e-05 ± 2.9e-05 |
| G9U A39U C61A | 3.53e-05 ± 3.2e-05 |
| C10A A14G U69G | 0.000118 ± 6.2e-05 |
| C10A C11U C70A | 3.27e-05 ± 2.7e-05 |
| C10A C11U U65G C67U C68A | 3.74e-05 ± 2e-05 |
| C10A C68G | 1.98e-05 ± 1.8e-05 |
| C10G A14G U65A C67G | 3.06e-05 ± 1.8e-05 |
| C10G G60C C67A | 2.87e-05 ± 2.2e-05 |
| C10U C11U C50G G59U | 4.53e-05 ± 3.3e-05 |
| C10U C34A C50A G51U C70A | 5.78e-05 ± 3.1e-05 |
| C11A C50U C61U C67G | 3.68e-05 ± 2.3e-05 |
| C11A C58U C68A | 5.96e-05 ± 4e-05 |
| C11U A12G | 1.89e-05 ± 1.2e-05 |
| C11U A14G G35U C50G | 0.000164 ± 8.9e-05 |
| A12G C67G C68A | 2.53e-05 ± 1.6e-05 |
| A12U G44A | 1.92e-05 ± 1.3e-05 |
| G13A A15U U47A G59C C61G C68G C70U | 3.99e-05 ± 2.3e-05 |
| G13A A36U C70A | 3.98e-05 ± 3.1e-05 |
| G13A C50G U56C | 3.09e-05 ± 2.3e-05 |
| G13C C50G | 2.9e-05 ± 2.3e-05 |
| G13C C58G C61G | 4.19e-05 ± 2.4e-05 |
| A14C G32A U69G | 5.06e-05 ± 3e-05 |
| A14G A48U U69G | 2.51e-05 ± 2.5e-05 |
| A14G C50U A52C C70A | 3.4e-05 ± 2e-05 |

A different layout for some results above:
C10A C11U C70A
  self-cleavage kobs at 40 uM GlcN6P [s⁻¹] = 3.27e-05 ± 2.7e-05
G13A A36U C70A
  self-cleavage kobs at 40 uM GlcN6P [s⁻¹] = 3.98e-05 ± 3.1e-05

More entries:

| Variant | self-cleavage kobs at 40 uM GlcN6P [s⁻¹] |
| --- | --- |
| A14G G29U U47G C70G | 3.26e-05 ± 2.4e-05 |
| A14G U31G C67U | 2.16e-05 ± 1.4e-05 |
| A14U A53U C68U | 2.88e-05 ± 1.9e-05 |
| A14U G29A | 1.54e-05 ± 1.4e-05 |
| A14U G29C U46G C70A | 3.1e-05 ± 2.4e-05 |
| A14U G51A C58U C61G | 2.55e-05 ± 2.1e-05 |
| A15C U30C C70A C71G | 5.3e-05 ± 3e-05 |
| A15C U47G C68G | 3.98e-05 ± 2e-05 |
| A15G C50G U65C | 2.61e-05 ± 2.3e-05 |
| A15G U46G C67G | 3.43e-05 ± 2.6e-05 |
| A15U G35C G38U U47G U69G | 5.59e-05 ± 3.1e-05 |
| A15U U31G U47A | 2.17e-05 ± 2e-05 |
| C16G A39C U54G | 2.28e-05 ± 2.3e-05 |
| C16G C71G | 1.86e-05 ± 1.8e-05 |
| C16G G32A | 1.48e-05 ± 9.7e-06 |
| C16G U47G | 2.16e-05 ± 1.4e-05 |
| C16U A39G G40U | 2.16e-05 ± 1.4e-05 |
| C16U G35A C68G | 5.29e-05 ± 2.8e-05 |
| C19A C67G | 3.26e-05 ± 1.7e-05 |
| G26U C70G | 1.62e-05 ± 1.5e-05 |
| G26U U27A A28G G29U U31G G32A A33C C34G G35A | 3.04e-05 ± 2.3e-05 |
| G29C G66A | 3.28e-05 ± 1.7e-05 |
| G29U C58U C68A U69C | 3.95e-05 ± 3e-05 |
| G29U G32A A39U | 3.06e-05 ± 2e-05 |
| G29U G38U U69G | 3.09e-05 ± 1.6e-05 |
| U30A A39C | 2.65e-05 ± 1.5e-05 |

Quoted at random: two entries already listed.

| Variant | self-cleavage kobs at 40 uM GlcN6P [s⁻¹] |
| --- | --- |
| A14U A53U C68U | 2.88e-05 ± 1.9e-05 |
| A14U G29C U46G C70A | 3.1e-05 ± 2.4e-05 |

Next part.

| Variant | self-cleavage kobs at 40 uM GlcN6P [s⁻¹] |
| --- | --- |
| U30C A52U C67U U69C C71A | 2.75e-05 ± 2.6e-05 |
| U30C C70A | 3.57e-05 ± 2.1e-05 |
| U30C U31G C70G | 3.3e-05 ± 2.8e-05 |
| U30C U45A | 2.63e-05 ± 2e-05 |
| U30G U54A C67G | 3.35e-05 ± 2.7e-05 |
| U31A C68U | 1.7e-05 ± 9.3e-06 |
| U31C A52G | 1.81e-05 ± 1.5e-05 |
| U31C G40U | 1.5e-05 ± 1.5e-05 |
| U31C G44U C67G | 2.34e-05 ± 1.9e-05 |
| U31G U65A | 2.26e-05 ± 1.5e-05 |
| G32A A39U | 1.26e-05 ± 9.9e-06 |
| G32A C50G | 4.05e-05 ± 2.1e-05 |
| G32A C50U C70G | 2.68e-05 ± 2.4e-05 |
| G32A U56A C67G | 2.61e-05 ± 2.5e-05 |
| A33U C50G | 3.06e-05 ± 1.7e-05 |
| C34A C67G C68A | 3.83e-05 ± 2.1e-05 |
| C34A U47G A52U C70A | 3.27e-05 ± 2.8e-05 |
| C34G U49G C67U U69G C71A | 2e-05 ± 2e-05 |
| C34U C50U C71G | 6.86e-05 ± 4.3e-05 |
| G35U U65G C67G | 3.69e-05 ± 2.7e-05 |
| A36U C50G G66U | 4.11e-05 ± 2.7e-05 |
| G37A A53G G66A | 4.54e-05 ± 2.6e-05 |
| A39G C50G | 2.33e-05 ± 1.7e-05 |
| A39G G40U U56A | 5.15e-05 ± 2.8e-05 |

Variants of: B1
Experiment: self-cleavage kobs at 10000 uM GlcN6P; higher = faster cleavage; RNA array
Conditions: with glucosamine-6-phosphate
Outline: as §1

| Variant | self-cleavage kobs at 10000 uM GlcN6P [s⁻¹] |
| --- | --- |
| C8U C70G | 0.000827 ± 0.00064 |
| G9A C34U A36C C50G | 4.13e-05 ± 2.6e-05 |
| C10A C68G | 1.72e-05 ± 1.3e-05 |
| C11A C50U C61U C67G | 2.59e-05 ± 1.5e-05 |
| C11U A14G G35U C50G | 3.54e-05 ± 2.2e-05 |
| A14G A48U U69G | 2.79e-05 ± 1.5e-05 |
| A14G C50U A52C C70A | 2.4e-05 ± 2.3e-05 |
| A15C U47G C68G | 2.09e-05 ± 1.9e-05 |
| A15G C50G U65C | 2.78e-05 ± 1.8e-05 |
| U30G U54A C67G | 0.000618 ± 0.00032 |
| G35U U65G C67G | 4.28e-05 ± 2.2e-05 |

Variants of: B1
Experiment: self-cleavage kobs at 640 uM GlcN6P; higher = faster cleavage; RNA array
Conditions: with glucosamine-6-phosphate
Outline: as §1

| Variant | self-cleavage kobs at 640 uM GlcN6P [s⁻¹] |
| --- | --- |
| G9C C50G U55A U57G C70U | 3.14e-05 ± 2.3e-05 |
| A14U G29C U46G C70A | 5.34e-05 ± 3.5e-05 |
| A33U C50G | 0.000468 ± 0.00028 |

Variants of: B1
Experiment: self-cleavage kobs at 160 uM GlcN6P; higher = faster cleavage; RNA array
Conditions: with glucosamine-6-phosphate
Outline: as §1

| Variant | self-cleavage kobs at 160 uM GlcN6P [s⁻¹] |
| --- | --- |
| C10A C11U C70A | 7.65e-05 ± 4.1e-05 |
| A14G G29U U47G C70G | 5.77e-05 ± 3.1e-05 |
| A15U U31G U47A | 1.6e-05 ± 1.3e-05 |
| A33U C50G | 3.32e-05 ± 2.5e-05 |

Variants of: B1
Experiment: self-cleavage kobs at 2500 uM GlcN6P; higher = faster cleavage; RNA array
Conditions: with glucosamine-6-phosphate
Outline: as §1

| Variant | self-cleavage kobs at 2500 uM GlcN6P [s⁻¹] |
| --- | --- |
| C10G A14G U65A C67G | 3.4e-05 ± 2.4e-05 |
| C10U C34A C50A G51U C70A | 4.76e-05 ± 2.8e-05 |
| G13C C50G | 3.87e-05 ± 3e-05 |
| G32A C50G | 2.99e-05 ± 2.6e-05 |
| A39G C50G | 2.08e-05 ± 1.4e-05 |
